Values quoted from earlier work in patent US20230190735A1 (TFF Pharmaceuticals, Inc., priority 2021, published 2023).
At least one read-out could not be matched to a standard name with certainty.

Settings: oral dosing; cited from earlier work

Structure (SMILES): C[C@@H](c1ncncc1F)[C@](O)(Cn1cncn1)c1ccc(F)cc1F [Voriconazole, (2R,3S)-2-(2,4-difluro-phenyl)-3-(5-flouro-4-pyrimidinyl)-1 (1H-1,2,4-triazol-1-yl)2-butanol]
- time to maximum plasma concentration (Cmax): 1 to 2 h
